The results in this text go back to article PMC4973355.

No constants are given. Whether binding was seen depends on the method and setting. Binding seen in cells or lysates may run through a third protein. A result given as binding can be weak or reduced; the word gives no strength. Where a sequence is shown, tags or fusion partners need not be part of it.

The target in assay [1] is T1, GST-2.SH3 domain of CD2AP (mouse) (UniProt Q9JLQ0).
T1 sequence: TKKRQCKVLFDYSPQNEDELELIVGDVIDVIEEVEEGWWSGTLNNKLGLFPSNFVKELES
Kind of assay: pull-down; GST fusions of CD2AP (NH2 terminus, individual SH3 domains) or GST alone; lysates of transiently transfected HEK293T cells; immunoblotting; only the target purified. (In general: Immunoblotting shows a protein as a band on a membrane.)

In assay [2] the target is T1, GST-2.SH3 domain of CD2AP (mouse). As to the kind of experiment: pull-down; GST-2.SH3 domain of CD2AP or GST alone; rat glomerular lysate with endogenous tankyrases; immunoblotting; only the target purified.

Turning to “Flag-tagged ankyrin domains of tankyrase 2 (domain or fragment)”, the binding result in assay [1] is “binds”.
Turning to “tankyrase 1 endogenously expressed in rat glomeruli (enzyme)”, in assay [2], the binding entry is “binds”.
Take “tankyrase 2 endogenously expressed in rat glomeruli (enzyme)”: in assay [2], the binding entry was “binds”.
